First the molecules themselves.
B1: cJun, P05412 1-331 (protein)
chain: MTAKMETTFYDDALNASFLPSESGPYGYSNPKILKQSMTLNLADPVGSLKPHLRAKNSDLLTSPDVGLLKLASPELERLIIQSSNGHITTTPTPTQFLCPKNVTDEQEGFAEGFVRALAELHSQNTLPSVTSAAQPVNGAGMVAPAVASVAGGSGSGGFSASLHSEPPVYANLSNFNPGALSSGGGAPSYGAAGLAFPAQPQQQQQPPHHLPQQMPVQHPRLQALKEEPQTVPEMPGETPPLSPIDMESQERIKAERKRMRNRIAASKCRKRKLERIARLEEKVKTLKAQNSELASTANMLREQVAQLKQKVMNHVNSGCQLMLTQQLQTF
B2: hnRNP M (protein, UniProt P52272 1-730)
chain: MAAGVEAAAEVAATEIKMEEESGAPGVPSGNGAPGPKGEGERPAQNEKRKEKNIKRGGNRFEPYANPTKRYRAFITNIPFDVKWQSLKDLVKEKVGEVTYVELLMDAEGKSRGCAVVEFKMEESMKKAAEVLNKHSLSGRPLKVKEDPDGEHARRAMQKVMATTGGMGMGPGGPGMITIPPSILNNPNIPNEIIHALQAGRLGSTVFVANLDYKVGWKKLKEVFSMAGVVVRADILEDKDGKSRGIGTVTFEQSIEAVQAISMFNGQLLFDRPMHVKMDERALPKGDFFPPERPQQLPHGLGGIGMGLGPGGQPIDANHLNKGIGMGNIGPAGMGMEGIGFGINKMGGMEGPFGGGMENMGRFGSGMNMGRINEILSNALKRGEIIAKQGGGGGGGSVPGIERMGPGIDRLGGAGMERMGAGLGHGMDRVGSEIERMGLVMDRMGSVERMGSGIERMGPLGLDHMASSIERMGQTMERIGSGVERMGAGMGFGLERMAAPIDRVGQTIERMGSGVERMGPAIERMGLSMERMVPAGMGAGLERMGPVMDRMATGLERMGANNLERMGLERMGANSLERMGLERMGANSLERMGPAMGPALGAGIERMGLAMGGGGGASFDRAIEMERGNFGGSFAGSFGGAGGHAPGVARKACQIFVRNLPFDFTWKMLKDKFNECGHVLYADIKMENGKSKGCGVVKFESPEVAERACRMMNGMKLSGREIDVRIDRNA
B3: hnRNP L (protein, UniProt P14866 1-589)
chain: MSRRLLPRAEKRRRRLEQRQQPDEQRRRSGAMVKMAAAGGGGGGGRYYGGGSEGGRAPKRLKTDNAGDQHGGGGGGGGGAGAAGGGGGGENYDDPHKTPASPVVHIRGLIDGVVEADLVEALQEFGPISYVVVMPKKRQALVEFEDVLGACNAVNYAADNQIYIAGHPAFVNYSTSQKISRPGDSDDSRSVNSVLLFTILNPIYSITTDVLYTICNPCGPVQRIVIFRKNGVQAMVEFDSVQSAQRAKASLNGADIYSGCCTLKIEYAKPTRLNVFKNDQDTWDYTNPNLSGQGDPGSNPNKRQRQPPLLGDHPAEYGGPHGGYHSHYHDEGYGPPPPHYEGRRMGPPVGGHRRGPSRYGPQYGHPPPPPPPPEYGPHADSPVLMVYGLDQSKMNCDRVFNVFCLYGNVEKVKFMKSKPGAAMVEMADGYAVDRAITHLNNNFMFGQKLNVCVSKQPAIMPGQSYGLEDGSCSYKDFSESRNNRFSTPEQAAKNRIQHPSNVLHFFNAPLEVTEENFFEICDELGVKRPSSVKVFSGKSERSSSGLLEWESKSDALETLGFLNHYQMKNPNGPYPYTLKLCFSTAQHAS
B4: HMGB2 (protein, UniProt P26583 1-209)
chain: MGKGDPNKPRGKMSSYAFFVQTCREEHKKKHPDSSVNFAEFSKKCSERWKTMSAKEKSKFEDMAKSDKARYDREMKNYVPPKGDKKGKKKDPNAPKRPPSAFFLFCSEHRPKIKSEHPGLSIGDTAKKLGEMWSEQSAKDKQPYEQKAAKLKEKYEKDIAAYRAKGKSEAGKKGPGRPTGSKKKNEPEDEEEEEEEEDEDEEEEDEDEE
B5: CCT2 (protein, UniProt P78371 1-535)
chain: MASLSLAPVNIFKAGADEERAETARLTSFIGAIAIGDLVKSTLGPKGMDKILLSSGRDASLMVTNDGATILKNIGVDNPAAKVLVDMSRVQDDEVGDGTTSVTVLAAELLREAESLIAKKIHPQTIIAGWREATKAAREALLSSAVDHGSDEVKFRQDLMNIAGTTLSSKLLTHHKDHFTKLAVEAVLRLKGSGNLEAIHIIKKLGGSLADSYLDEGFLLDKKIGVNQPKRIENAKILIANTGMDTDKIKIFGSRVRVDSTAKVAEIEHAEKEKMKEKVERILKHGINCFINRQLIYNYPEQLFGAAGVMAIEHADFAGVERLALVTGGEIASTFDHPELVKLGSCKLIEEVMIGEDKLIHFSGVALGEACTIVLRGATQQILDEAERSLHDALCVLAQTVKDSRTVYGGGCSEMLMAHAVTQLANRTPGKEAVAMESYAKALRMLPTIIADNAGYDSADLVAQLRAAHSEGNTTAGLDMREGTIGDMAILGITESFQVKRQVLLSAAEAAEVILRVDNIIKAAPRKRVPDHHPC
B6: HMGB3 (protein, UniProt O15347 1-200)
chain: MAKGDPKKPKGKMSAYAFFVQTCREEHKKKNPEVPVNFAEFSKKCSERWKTMSGKEKSKFDEMAKADKVRYDREMKDYGPAKGGKKKKDPNAPKRPPSGFFLFCSEFRPKIKSTNPGISIGDVAKKLGEMWNNLNDSEKQPYITKAAKLKEKYEKDVADYKSKGKFDGAKGPAKVARKKVEEEDEEEEEEEEEEEEEEDE

Chains of the proteins cited; added tags and fusions are not shown. Lines headed by an entry give the natural chain unless they say otherwise; changes in a name come on top. A line that says so, or that is headed by a name, gives the form on record, which may keep a tag or linker. Residues count along the entry.
UniProt Q969G3: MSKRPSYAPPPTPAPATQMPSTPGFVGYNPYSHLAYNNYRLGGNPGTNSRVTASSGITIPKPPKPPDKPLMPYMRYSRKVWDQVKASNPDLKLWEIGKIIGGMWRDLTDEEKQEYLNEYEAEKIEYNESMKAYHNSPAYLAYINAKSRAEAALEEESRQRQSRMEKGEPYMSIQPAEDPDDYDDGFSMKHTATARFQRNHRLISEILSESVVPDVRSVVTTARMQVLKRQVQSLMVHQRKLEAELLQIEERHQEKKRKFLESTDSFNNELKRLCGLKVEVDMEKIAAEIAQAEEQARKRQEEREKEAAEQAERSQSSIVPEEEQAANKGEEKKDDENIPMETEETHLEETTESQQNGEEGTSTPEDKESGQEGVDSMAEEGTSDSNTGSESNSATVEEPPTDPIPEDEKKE
UniProt Q99832: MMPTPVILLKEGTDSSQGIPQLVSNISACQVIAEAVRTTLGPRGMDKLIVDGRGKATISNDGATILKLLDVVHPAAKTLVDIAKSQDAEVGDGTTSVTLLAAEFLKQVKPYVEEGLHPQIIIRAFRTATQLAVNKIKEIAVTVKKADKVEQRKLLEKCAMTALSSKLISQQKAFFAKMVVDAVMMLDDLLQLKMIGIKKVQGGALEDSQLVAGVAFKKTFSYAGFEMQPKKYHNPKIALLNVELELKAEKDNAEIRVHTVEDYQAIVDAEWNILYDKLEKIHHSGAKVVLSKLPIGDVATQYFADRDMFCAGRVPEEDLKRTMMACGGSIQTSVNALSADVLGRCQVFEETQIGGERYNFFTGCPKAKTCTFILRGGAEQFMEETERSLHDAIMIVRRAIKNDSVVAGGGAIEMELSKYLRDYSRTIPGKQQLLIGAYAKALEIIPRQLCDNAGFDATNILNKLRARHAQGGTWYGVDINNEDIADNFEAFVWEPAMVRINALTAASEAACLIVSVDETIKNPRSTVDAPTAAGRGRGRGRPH
UniProt Q14839: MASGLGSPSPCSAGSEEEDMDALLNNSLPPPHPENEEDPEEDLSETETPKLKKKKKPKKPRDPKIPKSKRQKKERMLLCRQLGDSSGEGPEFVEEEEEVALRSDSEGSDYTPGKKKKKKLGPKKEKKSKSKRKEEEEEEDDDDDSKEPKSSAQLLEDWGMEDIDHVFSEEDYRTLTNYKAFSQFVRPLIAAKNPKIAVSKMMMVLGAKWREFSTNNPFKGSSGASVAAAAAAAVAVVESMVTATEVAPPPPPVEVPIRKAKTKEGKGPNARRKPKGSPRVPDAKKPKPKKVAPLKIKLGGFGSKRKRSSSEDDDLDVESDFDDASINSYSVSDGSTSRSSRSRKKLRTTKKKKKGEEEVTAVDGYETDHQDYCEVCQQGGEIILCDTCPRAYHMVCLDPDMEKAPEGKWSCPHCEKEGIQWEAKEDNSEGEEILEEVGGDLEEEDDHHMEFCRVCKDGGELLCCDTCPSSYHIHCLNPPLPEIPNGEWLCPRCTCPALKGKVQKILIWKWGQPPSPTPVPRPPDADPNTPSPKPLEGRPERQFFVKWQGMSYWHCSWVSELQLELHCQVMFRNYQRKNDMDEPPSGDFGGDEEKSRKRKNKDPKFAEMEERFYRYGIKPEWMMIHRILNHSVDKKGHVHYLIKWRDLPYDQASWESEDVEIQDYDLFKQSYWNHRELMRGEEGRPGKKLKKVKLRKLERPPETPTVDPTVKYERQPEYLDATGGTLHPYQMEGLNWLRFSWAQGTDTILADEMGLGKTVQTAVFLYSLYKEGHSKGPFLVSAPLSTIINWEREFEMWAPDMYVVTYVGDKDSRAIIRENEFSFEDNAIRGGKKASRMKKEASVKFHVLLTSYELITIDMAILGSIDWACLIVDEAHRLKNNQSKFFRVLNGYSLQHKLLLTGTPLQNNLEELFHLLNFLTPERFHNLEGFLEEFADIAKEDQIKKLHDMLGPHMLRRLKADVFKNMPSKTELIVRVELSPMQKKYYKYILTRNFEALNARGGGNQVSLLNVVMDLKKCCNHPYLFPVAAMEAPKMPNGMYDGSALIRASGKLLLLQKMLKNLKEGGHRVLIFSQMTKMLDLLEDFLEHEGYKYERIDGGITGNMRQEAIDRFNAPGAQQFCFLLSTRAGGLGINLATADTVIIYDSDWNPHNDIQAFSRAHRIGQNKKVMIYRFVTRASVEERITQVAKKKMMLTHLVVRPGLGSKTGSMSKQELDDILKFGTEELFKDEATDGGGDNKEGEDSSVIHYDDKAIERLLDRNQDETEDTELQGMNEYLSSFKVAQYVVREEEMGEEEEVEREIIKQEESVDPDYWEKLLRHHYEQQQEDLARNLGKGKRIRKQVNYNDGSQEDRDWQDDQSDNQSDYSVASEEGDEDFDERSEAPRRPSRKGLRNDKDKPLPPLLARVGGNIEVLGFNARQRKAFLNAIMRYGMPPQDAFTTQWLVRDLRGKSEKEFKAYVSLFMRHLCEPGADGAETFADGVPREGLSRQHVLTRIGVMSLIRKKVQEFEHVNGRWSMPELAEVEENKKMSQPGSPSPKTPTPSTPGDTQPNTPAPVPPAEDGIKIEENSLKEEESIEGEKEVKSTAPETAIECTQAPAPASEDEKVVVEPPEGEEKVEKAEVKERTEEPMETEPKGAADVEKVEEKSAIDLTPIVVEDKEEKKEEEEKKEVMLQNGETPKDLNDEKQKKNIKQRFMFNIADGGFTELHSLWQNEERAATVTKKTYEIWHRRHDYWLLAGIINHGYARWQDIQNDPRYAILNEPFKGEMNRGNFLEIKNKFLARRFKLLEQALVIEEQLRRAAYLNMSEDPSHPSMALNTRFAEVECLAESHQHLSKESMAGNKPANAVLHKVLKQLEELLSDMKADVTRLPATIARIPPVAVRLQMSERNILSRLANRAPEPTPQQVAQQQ
UniProt P17096: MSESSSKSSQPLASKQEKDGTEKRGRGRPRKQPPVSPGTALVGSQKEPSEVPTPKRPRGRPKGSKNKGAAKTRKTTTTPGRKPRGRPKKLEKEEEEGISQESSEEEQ
Lamin-A (P02545, residues 1-646): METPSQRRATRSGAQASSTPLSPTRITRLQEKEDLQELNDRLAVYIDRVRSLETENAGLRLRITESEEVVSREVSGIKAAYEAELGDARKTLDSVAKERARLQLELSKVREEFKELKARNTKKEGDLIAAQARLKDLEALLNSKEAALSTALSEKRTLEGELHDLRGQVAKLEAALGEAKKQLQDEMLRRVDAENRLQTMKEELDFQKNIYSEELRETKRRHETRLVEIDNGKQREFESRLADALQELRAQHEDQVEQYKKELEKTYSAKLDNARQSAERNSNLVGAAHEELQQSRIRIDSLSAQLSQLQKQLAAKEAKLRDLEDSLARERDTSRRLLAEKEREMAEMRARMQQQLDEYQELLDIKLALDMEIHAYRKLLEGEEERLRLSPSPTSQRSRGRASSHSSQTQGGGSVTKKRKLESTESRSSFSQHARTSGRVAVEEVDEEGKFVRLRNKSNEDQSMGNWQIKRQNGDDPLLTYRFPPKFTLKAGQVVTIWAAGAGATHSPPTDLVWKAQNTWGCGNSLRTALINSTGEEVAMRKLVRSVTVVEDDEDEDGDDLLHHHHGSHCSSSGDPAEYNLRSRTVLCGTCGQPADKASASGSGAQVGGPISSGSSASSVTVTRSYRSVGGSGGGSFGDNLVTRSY
Lamin-C (P02545-2, form named): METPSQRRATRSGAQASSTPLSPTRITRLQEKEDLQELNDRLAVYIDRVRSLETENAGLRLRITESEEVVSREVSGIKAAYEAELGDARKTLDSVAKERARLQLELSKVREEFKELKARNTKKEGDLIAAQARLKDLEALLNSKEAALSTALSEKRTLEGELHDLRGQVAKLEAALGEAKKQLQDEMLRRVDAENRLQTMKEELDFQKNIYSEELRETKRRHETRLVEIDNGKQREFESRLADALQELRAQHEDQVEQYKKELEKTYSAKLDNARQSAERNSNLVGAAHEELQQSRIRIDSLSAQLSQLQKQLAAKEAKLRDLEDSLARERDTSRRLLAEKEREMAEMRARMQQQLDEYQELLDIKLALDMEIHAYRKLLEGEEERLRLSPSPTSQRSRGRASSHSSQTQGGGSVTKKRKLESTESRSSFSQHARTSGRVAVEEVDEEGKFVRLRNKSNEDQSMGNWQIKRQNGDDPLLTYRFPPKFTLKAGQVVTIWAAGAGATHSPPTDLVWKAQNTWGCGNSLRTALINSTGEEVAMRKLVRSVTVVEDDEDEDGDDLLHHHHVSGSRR
UniProt Q9UBB5: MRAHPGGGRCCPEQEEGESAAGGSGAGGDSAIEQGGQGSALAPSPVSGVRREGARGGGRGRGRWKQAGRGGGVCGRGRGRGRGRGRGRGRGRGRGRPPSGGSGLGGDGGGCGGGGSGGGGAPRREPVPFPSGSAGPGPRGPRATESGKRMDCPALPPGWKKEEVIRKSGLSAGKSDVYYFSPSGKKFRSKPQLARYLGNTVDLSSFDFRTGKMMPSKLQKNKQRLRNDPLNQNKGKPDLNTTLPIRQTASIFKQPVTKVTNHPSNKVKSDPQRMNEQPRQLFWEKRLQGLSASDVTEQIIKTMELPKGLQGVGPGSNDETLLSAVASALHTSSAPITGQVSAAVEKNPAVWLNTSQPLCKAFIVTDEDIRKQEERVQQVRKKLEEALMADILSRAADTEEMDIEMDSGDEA
UniProt O60264: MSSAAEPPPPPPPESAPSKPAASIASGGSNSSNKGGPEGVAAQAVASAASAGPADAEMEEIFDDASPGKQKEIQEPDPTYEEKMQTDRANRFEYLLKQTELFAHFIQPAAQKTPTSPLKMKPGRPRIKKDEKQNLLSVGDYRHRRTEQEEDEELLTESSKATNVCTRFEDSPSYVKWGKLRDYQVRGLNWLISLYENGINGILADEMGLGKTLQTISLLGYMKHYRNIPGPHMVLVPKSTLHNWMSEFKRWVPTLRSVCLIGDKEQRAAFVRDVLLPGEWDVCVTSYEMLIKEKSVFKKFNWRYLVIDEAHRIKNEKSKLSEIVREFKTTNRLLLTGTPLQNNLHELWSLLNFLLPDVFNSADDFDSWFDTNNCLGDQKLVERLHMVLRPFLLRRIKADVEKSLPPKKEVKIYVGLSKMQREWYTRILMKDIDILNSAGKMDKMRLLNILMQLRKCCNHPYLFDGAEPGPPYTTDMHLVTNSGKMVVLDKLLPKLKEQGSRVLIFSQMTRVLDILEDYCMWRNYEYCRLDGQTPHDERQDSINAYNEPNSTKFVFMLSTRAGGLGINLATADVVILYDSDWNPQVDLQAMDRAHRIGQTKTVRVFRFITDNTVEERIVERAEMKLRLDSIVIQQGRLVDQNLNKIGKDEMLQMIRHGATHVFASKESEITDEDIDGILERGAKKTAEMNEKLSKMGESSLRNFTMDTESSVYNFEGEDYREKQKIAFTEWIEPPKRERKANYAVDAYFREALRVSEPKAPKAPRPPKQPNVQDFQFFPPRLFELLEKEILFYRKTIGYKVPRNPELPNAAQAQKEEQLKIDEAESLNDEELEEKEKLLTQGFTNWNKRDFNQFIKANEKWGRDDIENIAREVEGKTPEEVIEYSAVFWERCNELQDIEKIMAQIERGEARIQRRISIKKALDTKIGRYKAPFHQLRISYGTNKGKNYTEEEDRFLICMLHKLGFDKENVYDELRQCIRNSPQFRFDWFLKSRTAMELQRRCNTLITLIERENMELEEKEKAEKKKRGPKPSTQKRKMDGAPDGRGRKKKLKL
UniProt P38159: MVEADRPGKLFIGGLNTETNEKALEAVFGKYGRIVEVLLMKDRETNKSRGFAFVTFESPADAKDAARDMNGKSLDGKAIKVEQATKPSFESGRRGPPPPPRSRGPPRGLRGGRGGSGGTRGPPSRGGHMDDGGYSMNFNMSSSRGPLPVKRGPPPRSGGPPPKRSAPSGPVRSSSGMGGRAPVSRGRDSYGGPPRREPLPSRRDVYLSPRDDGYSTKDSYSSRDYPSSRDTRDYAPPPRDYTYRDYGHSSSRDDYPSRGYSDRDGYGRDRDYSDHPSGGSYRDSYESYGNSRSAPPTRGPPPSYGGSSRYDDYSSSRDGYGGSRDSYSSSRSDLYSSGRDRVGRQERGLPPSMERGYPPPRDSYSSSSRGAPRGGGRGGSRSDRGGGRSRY
UniProt P31943: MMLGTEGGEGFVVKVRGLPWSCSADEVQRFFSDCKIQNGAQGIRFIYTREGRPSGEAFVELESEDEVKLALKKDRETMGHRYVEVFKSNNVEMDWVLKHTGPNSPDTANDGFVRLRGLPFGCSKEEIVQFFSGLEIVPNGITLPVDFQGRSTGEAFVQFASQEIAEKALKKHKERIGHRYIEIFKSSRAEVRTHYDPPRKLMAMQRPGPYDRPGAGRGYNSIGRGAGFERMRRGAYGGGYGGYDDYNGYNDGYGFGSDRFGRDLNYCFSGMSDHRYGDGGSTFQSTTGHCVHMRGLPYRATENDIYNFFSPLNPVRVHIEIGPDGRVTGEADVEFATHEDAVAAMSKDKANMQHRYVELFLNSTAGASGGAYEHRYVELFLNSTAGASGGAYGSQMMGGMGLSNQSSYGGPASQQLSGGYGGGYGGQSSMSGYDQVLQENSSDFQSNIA

Results are given in words; binding and its absence hold for the method and conditions named. Binding seen in cells or lysates may run through a third protein. Here binding means that the protein was enriched with, or labelled near, the bait; the list need not be complete. For some assays here: No binding means not detected with the bait. Sequences can lack the tags named with a protein.

One assay deals with T1, His-FLAG-tagged ATF2 (human (cDNA from K562 cells)) (UniProt P15336).
T1 sequence: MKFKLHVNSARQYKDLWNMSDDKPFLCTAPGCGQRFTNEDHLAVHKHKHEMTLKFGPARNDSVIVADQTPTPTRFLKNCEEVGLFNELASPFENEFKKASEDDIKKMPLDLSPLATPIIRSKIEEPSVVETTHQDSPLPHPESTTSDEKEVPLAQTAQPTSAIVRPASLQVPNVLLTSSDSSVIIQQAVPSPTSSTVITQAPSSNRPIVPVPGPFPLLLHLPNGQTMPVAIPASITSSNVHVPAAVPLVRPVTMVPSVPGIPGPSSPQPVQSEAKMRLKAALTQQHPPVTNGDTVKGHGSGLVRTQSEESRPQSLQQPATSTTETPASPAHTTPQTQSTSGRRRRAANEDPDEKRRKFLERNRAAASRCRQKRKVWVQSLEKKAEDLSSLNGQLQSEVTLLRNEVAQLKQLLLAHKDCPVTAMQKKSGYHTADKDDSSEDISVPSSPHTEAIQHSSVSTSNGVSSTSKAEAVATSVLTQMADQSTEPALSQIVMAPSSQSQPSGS
As to the kind of experiment: affinity purification with mass spectrometry; nuclear extract of K562 cells stably expressing His-FLAG-ATF2, untreated or treated with 2 mM NaB; heparin sepharose (0.6 M NaCl eluate), HisTALON (imidazole), anti-FLAG agarose (FLAG peptide), pre-clearing on mutant G-CRE agarose, G-CRE oligonucleotide column (0.4 M NaCl eluate); bands of a 10% SDS-PAGE gel by MS/MS.
Conditions: not given
Consider BAF57 (from UniProt Q969G3 1-411), for which the binding entry is given as “binds”.

Regarding BAF155 (from UniProt Q92922 1-1105), the binding entry is listed as “binds”.

Take BAF170 (from UniProt Q8TAQ2 1-1214): the binding entry is reported as “binds”.

BRM (from UniProt P51531 1-1590): the binding entry is “binds”.

Brg1 (from UniProt P51532 1-1647): the binding result is on record as “binds”.

On to CCT5 (from UniProt P48643 1-541), for which the binding entry is listed as “binds”.

On to CCT7 (from UniProt Q99832 1-543), for which the binding result is recorded as “binds”.

On to CCT8 (from UniProt P50990 1-548), for which the binding entry is given as “binds”.

For the molecule CHD-4 (from UniProt Q14839 1-1912), the binding result is listed as “binds”.

With HDAC1 (from UniProt Q13547 1-482), the binding entry is reported as “binds”.

With HDAC2 (from UniProt Q92769 1-488), the binding entry was “binds”.

Regarding HMGA1 (from UniProt P17096 1-107), the binding entry was “binds”.

In the case of HMGB1 (from UniProt P09429 1-215), the binding entry is “binds”.

With Lamin-A (from UniProt P02545 1-646), the binding entry is listed as “binds”.

Lamin-B (human (endogenous in K562)): the binding result is “binds”.

Lamin-C (from UniProt P02545-2 1-572): the binding entry was “binds”.

For MBD2 (from UniProt Q9UBB5 1-411), the binding result was “binds”.

For SNF2H (from UniProt O60264 1-1052), the binding entry is recorded as “binds”.

hnRNP A/B (human (endogenous in K562)): the binding result was “binds”.

On to hnRNP G (from UniProt P38159 1-391), for which the binding result was “binds”.

On to hnRNP H1 (from UniProt P31943 1-449), for which the binding entry is reported as “binds”.

Consider hnRNP K (from UniProt P61978 1-463), for which the binding result is on record as “binds”.

Regarding hnRNP R2 (human (endogenous in K562)), the binding result was “binds”.

The next assay deals with T2, His-FLAG-tagged ATF2 (human (cDNA from K562 cells)), P15336.
T2 chain: T1 sequence
The description is as above. The following applies: remark: other sources report otherwise.
As for B1, the binding result is recorded as “binds”.

The target of another assay is T1, His-FLAG-tagged ATF2 (human (cDNA from K562 cells)). As to the kind of experiment: affinity purification with mass spectrometry; as a1, cells treated with 2 mM NaB for 48 hours; proteins lost against untreated cells.
Conditions: not given
Regarding HDAC1 (from UniProt Q13547 1-482), the binding entry is given as “no binding (only cells treated with 2 mM NaB)”.

As to HDAC2 (from UniProt Q92769 1-488), the binding result was “no binding (only cells treated with 2 mM NaB)”.

Turning to MBD2 (from UniProt Q9UBB5 1-411), the binding result is “no binding (only cells treated with 2 mM NaB)”.

Another assay shares this target. The assay is described as follows: affinity purification with mass spectrometry; nuclear extract of K562 cells stably expressing His-FLAG-ATF2, untreated or treated with 2 mM NaB; heparin sepharose (0.6 M NaCl eluate), HisTALON (imidazole), anti-FLAG agarose (FLAG peptide), pre-clearing on mutant G-CRE agarose, G-CRE oligonucleotide column (0.4 M NaCl eluate); bands of a 10% SDS-PAGE gel by MS/MS.
Conditions: not given
The source holds these as a separate data set.
For B2, the binding entry was “binds”.

In the case of B3, the binding result is given as “binds”.

Turning to B4, the binding result was “binds”.

On to B5, for which the binding entry is recorded as “binds”.

As to B6, the binding entry is given as “binds”.

For the origin of these results see PMC3819381.
